In US20050244430A1:
Results are given in words; binding and its absence hold for the method and conditions named. Binding seen in cells or lysates may run through a third protein. Some results given as binding are weak or reduced against the parent protein; the word gives no strength.

By UniProt entry, the sequences of proteins in these tests, tags left out. Where a name states a change or a piece, a line headed by the entry shows the natural chain unless it says otherwise. Chains listed by the source or under a name are the forms on record and can include a tag or linker. Residues count along the entry.
UniProt O43187, residues 1-590: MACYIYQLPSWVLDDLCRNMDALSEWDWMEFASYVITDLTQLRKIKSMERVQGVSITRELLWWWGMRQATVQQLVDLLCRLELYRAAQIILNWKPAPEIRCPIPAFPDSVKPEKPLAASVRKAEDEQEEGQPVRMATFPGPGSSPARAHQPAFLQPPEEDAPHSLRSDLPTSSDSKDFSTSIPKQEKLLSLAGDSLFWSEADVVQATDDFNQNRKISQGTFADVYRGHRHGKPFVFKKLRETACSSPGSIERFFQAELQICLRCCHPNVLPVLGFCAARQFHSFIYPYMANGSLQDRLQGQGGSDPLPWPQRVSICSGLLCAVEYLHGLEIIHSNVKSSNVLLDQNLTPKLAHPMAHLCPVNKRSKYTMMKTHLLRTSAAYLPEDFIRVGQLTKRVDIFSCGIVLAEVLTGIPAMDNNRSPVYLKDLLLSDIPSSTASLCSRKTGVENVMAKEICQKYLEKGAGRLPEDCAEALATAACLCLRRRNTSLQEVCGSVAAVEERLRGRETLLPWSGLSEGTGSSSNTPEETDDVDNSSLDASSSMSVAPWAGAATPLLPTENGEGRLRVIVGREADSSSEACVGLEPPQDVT
HA-Mal (P58753, form named): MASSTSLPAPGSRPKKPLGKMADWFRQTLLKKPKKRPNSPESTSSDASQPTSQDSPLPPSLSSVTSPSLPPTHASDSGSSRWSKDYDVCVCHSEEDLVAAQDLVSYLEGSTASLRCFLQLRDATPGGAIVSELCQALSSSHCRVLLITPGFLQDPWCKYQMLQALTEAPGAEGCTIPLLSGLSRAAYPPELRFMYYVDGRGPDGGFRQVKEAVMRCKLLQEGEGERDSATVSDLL

Biological target: Myc-IRAK2 (UniProt O43187)
Assay: co-immunoprecipitation from 293T lysates (not shown)

HA-Mal (from UniProt P58753 1-235)
binding: binds
